No constants are given. Whether binding was seen depends on the method and setting. Binding seen in cells or lysates may run through a third protein. These calls come from enrichment with a bait or labelling near it, and not all partners need be listed.
Target: FLAG-METTL5 (human)
Assay: affinity purification with mass spectrometry

binding: binds
B1: TRMT112 (protein, UniProt Q9UI30 1-125)
chain: MKLLTHNLLSSHVRGVGSRGFPLRLQATEVRICPVEFNPNFVARMIPKVEWSAFLEAADNLRLIQVPKGPVEGYEENEEFLRTMHHLLLEVEVIEGTLQCPESGRMFPISRGIPNMLLSEEETES
